PubChem BioAssay AID1259308 | NCATS, 2017

Aim: 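Genes whose loss raises luciferase production in HEK293 cells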 (primary screen)
System: human HEK293 embryonic kidney cells stably expressing firefly luciferase (HEK-CMV-Luc2-Hygro)
Reagents: single siRNA against human genes, 0.8 pmol siRNA per well
Duration: 72 h
Measured: 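Reporter luminescence and viable-cell signal on separate replicate plates, given as percent of non-targeting control and median/MAD z-scores, plus per-cell luciferase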
Scale: total luciferase, z-score: higher = more reporter protein produced
Call rule: 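Active when the median/MAD z-score for overall luciferase is greater than 3; a gene was taken forward for validation with new siRNAs if at least two of its three siRNAs passed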
Calls: active = raised luciferase; inactive = no rise
The deposit covers about 59,000 reagents; below is a random part of them. About 1,510 of all reagents (2.6%) count as active. 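Calls use total luciferase alone and ignore viability, so some active siRNAs may act by altering cell number.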 Reagents against one gene are numbered here. Not all columns of the deposit are shown.

APOBEC3A (apolipoprotein B mRNA editing enzyme catalytic subunit 3A) #1: total luciferase, z-score = -1.3; outcome = inactive
APOBEC3A (apolipoprotein B mRNA editing enzyme catalytic subunit 3A) #2: total luciferase, z-score = -0.824; outcome = inactive
APOBEC3A (apolipoprotein B mRNA editing enzyme catalytic subunit 3A) #3: total luciferase, z-score = 0.609; outcome = inactive
PCNT (pericentrin) #1: total luciferase, z-score = -0.436; outcome = inactive
PCNT (pericentrin) #2: total luciferase, z-score = 0.619; outcome = inactive
PCNT (pericentrin) #3: total luciferase, z-score = 0.0401; outcome = inactive
PIH1D2 (PIH1 domain containing 2) #1: total luciferase, z-score = 0.72; outcome = inactive
PIH1D2 (PIH1 domain containing 2) #2: total luciferase, z-score = 5.47; outcome = active
PIH1D2 (PIH1 domain containing 2) #3: total luciferase, z-score = 0.0947; outcome = inactive
MED20 (mediator complex subunit 20) #1: total luciferase, z-score = -0.375; outcome = inactive
MED20 (mediator complex subunit 20) #2: total luciferase, z-score = -0.491; outcome = inactive
MED20 (mediator complex subunit 20) #3: total luciferase, z-score = -0.329; outcome = inactive
GNS (glucosamine (N-acetyl)-6-sulfatase) #1: total luciferase, z-score = -0.0105; outcome = inactive
GNS (glucosamine (N-acetyl)-6-sulfatase) #2: total luciferase, z-score = 0.319; outcome = inactive
GNS (glucosamine (N-acetyl)-6-sulfatase) #3: total luciferase, z-score = 2.08; outcome = inactive
SERF2 (small EDRK-rich factor 2) #1: total luciferase, z-score = 1.14; outcome = inactive
SERF2 (small EDRK-rich factor 2) #2: total luciferase, z-score = 0.228; outcome = inactive
SERF2 (small EDRK-rich factor 2) #3: total luciferase, z-score = 0.0784; outcome = inactive
XAF1 (XIAP associated factor 1) #1: total luciferase, z-score = -1.09; outcome = inactive
XAF1 (XIAP associated factor 1) #2: total luciferase, z-score = 1.1; outcome = inactive
XAF1 (XIAP associated factor 1) #3: total luciferase, z-score = -2.38; outcome = inactive
ANKRD34C-AS1 (ANKRD34C antisense RNA 1) #1: total luciferase, z-score = -0.603; outcome = inactive
ANKRD34C-AS1 (ANKRD34C antisense RNA 1) #2: total luciferase, z-score = 1.28; outcome = inactive
ANKRD34C-AS1 (ANKRD34C antisense RNA 1) #3: total luciferase, z-score = -0.119; outcome = inactive
GYPC (glycophorin C (Gerbich blood group)) #1: total luciferase, z-score = 0.158; outcome = inactive
GYPC (glycophorin C (Gerbich blood group)) #2: total luciferase, z-score = -0.919; outcome = inactive
GYPC (glycophorin C (Gerbich blood group)) #3: total luciferase, z-score = -0.00582; outcome = inactive
RPL36AP8 (ribosomal protein L36a pseudogene 8) #1: total luciferase, z-score = -0.536; outcome = inactive
RPL36AP8 (ribosomal protein L36a pseudogene 8) #2: total luciferase, z-score = -0.966; outcome = inactive
RPL36AP8 (ribosomal protein L36a pseudogene 8) #3: total luciferase, z-score = 0.527; outcome = inactive
LOC646865 (retired record) #1: total luciferase, z-score = -0.461; outcome = inactive
LOC646865 (retired record) #2: total luciferase, z-score = -1.93; outcome = inactive
LOC646865 (retired record) #3: total luciferase, z-score = -0.993; outcome = inactive

An excerpt of the results above:
MED20 (mediator complex subunit 20) #2: total luciferase, z-score = -0.491; outcome = inactive
MED20 (mediator complex subunit 20) #3: total luciferase, z-score = -0.329; outcome = inactive
